Reference: PMC7843934
These are yes or no findings as the source states them, for the method shown. Some results given as binding are weak or reduced against the parent protein; the word gives no strength.

Target: T1, serum response factor (SRF) (human (endogenous in LX-2)) (UniProt P11831)
T1 sequence: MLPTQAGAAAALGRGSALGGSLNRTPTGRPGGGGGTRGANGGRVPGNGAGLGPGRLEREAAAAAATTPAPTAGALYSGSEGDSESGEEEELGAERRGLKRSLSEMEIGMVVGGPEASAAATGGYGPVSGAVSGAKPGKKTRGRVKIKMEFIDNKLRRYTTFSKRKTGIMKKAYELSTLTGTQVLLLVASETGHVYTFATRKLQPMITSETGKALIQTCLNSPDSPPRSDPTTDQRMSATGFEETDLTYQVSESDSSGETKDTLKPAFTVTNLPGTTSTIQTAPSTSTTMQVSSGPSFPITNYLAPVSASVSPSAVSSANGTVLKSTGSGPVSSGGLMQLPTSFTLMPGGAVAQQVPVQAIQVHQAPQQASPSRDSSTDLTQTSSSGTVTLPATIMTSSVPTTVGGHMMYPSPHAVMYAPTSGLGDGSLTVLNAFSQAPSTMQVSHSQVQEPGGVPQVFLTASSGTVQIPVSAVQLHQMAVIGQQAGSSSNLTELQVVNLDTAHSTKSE
Assay: re-ChIP (sequential chromatin immunoprecipitation); LX-2 cells with or without TGF-β (5 ng/ml) for 24 h; chromatin cross-linked with 1% formaldehyde, sonicated to ~200 bp; immune complexes eluted (1% SDS, 100 mM NaCO3), diluted in re-ChIP buffer and precipitated with a second antibody; read out on the proximal EREG promoter

binding: binds
B1: myocardin-related transcription factor A (MRTF-A) (protein, UniProt Q969V6 1-931)
chain: MPPLKSPAAFHEQRRSLERARTEDYLKRKIRSRPERSELVRMHILEETSAEPSLQAKQLKLKRARLADDLNEKIAQRPGPMELVEKNILPVESSLKEAIIVGQVNYPKVADSSSFDEDSSDALSPEQPASHESQGSVPSPLEARVSEPLLSATSASPTQVVSQLPMGRDSREMLFLAEQPPLPPPPLLPPSLTNGTTIPTAKSTPTLIKQSQPKSASEKSQRSKKAKELKPKVKKLKYHQYIPPDQKQDRGAPPMDSSYAKILQQQQLFLQLQILNQQQQQHHNYQAILPAPPKSAGEALGSSGTPPVRSLSTTNSSSSSGAPGPCGLARQNSTSLTGKPGALPANLDDMKVAELKQELKLRSLPVSGTKTELIERLRAYQDQISPVPGAPKAPAATSILHKAGEVVVAFPAARLSTGPALVAAGLAPAEVVVATVASSGVVKFGSTGSTPPVSPTPSERSLLSTGDENSTPGDTFGEMVTSPLTQLTLQASPLQILVKEEGPRAGSCCLSPGGRAELEGRDKDQMLQEKDKQIEALTRMLRQKQQLVERLKLQLEQEKRAQQPAPAPAPLGTPVKQENSFSSCQLSQQPLGPAHPFNPSLAAPATNHIDPCAVAPGPPSVVVKQEALQPEPEPVPAPQLLLGPQGPSLIKGVAPPTLITDSTGTHLVLTVTNKNADSPGLSSGSPQQPSSQPGSPAPAPSAQMDLEHPLQPLFGTPTSLLKKEPPGYEEAMSQQPKQQENGSSSQQMDDLFDILIQSGEISADFKEPPSLPGKEKPSPKTVCGSPLAAQPSPSAELPQAAPPPPGSPSLPGRLEDFLESSTGLPLLTSGHDGPEPLSLIDDLHSQMLSSTAILDHPPSPMDTSELHFVPEPSSTMGLDLADGHLDSMDWLELSSGGPVLSLAPLSTTAPSLFSTDFLDGHDLQLHWDSCL
